Some of the results follow.

Sequences of proteins named here, by UniProt entry; tags and fusion partners are left off.
UniProt Q0JBA9, entry or part of it: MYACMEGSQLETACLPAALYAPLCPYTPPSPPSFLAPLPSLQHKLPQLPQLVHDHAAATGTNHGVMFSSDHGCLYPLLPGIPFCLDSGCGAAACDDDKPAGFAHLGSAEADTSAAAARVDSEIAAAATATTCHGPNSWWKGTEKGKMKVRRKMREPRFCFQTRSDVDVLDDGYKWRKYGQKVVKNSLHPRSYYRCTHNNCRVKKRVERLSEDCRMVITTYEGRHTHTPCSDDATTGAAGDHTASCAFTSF

The target of the assay is OsWRKY34 (Oryza sativa, UniProt Q0JBA9 1-250). Put plainly: protein-binding microarray (RPBM); PBS, 2% BSA, 51.3 ng/ul salmon testes DNA, 50 uM zinc acetate, 200 nM TF, 25 C, 1 h; high values mean tight binding. Conditions: protein: recombinant; tags: N-terminal polyhistidine and DsRed monomer fusion (pET32a); label: CyDye5-dUTP incorporated in the synthesized complementary strand; 3' TTTTT single-stranded linker to array surface; dsDNA, one strand shown. In outline: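 Using Ni–NTA, transcription factors fused N-terminally to polyhistidine and DsRed were purified after expression in E. coli BL21-CodonPlus. These were incubated at 200 nM with a blocked, double-stranded custom Agilent array for 1 h at 25 °C in a buffer containing 50 µM zinc acetate, and the array was washed. The binding signal is per-feature fluorescence intensity (arbitrary units) on an Axon 4000B scanner.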
On to “ACCCGCCTGATCTGAGCTCACTGCATTGCCCCGGACTTTCCGGAGTCACCTAGTGCAG”, for which the binding signal was 9720 fluorescence intensity (a.u.).
With “GATCTAGGTACTTTGGGCGTGACCTGCGGAGGCGGGGAGGCGGAGTCACCTAGTGCAG”, the binding signal was 11800 fluorescence intensity (a.u.).
Regarding “CATTTTTTCAGTTCAGTTCATATTCATATTTTCTTCTATCCGGAGTCACCTAGTGCAG”, the binding signal is 8710 fluorescence intensity (a.u.).
For “TCTCTTTTCTCATTTATTCACTTGCCACATCATTTTTCATCGGAGTCACCTAGTGCAG” the value was 8900 fluorescence intensity (a.u.); for “AAAATCAGTATCTACATCTTACATCTTAGTAGTCATTTATCGGAGTCACCTAGTGCAG”, 8330 fluorescence intensity (a.u.).
With “AGGTCAGGGAGCTGGCGGTGGTGGGCGGGACGGGCAAGCTCGGAGTCACCTAGTGCAG”, the binding signal is 12000 fluorescence intensity (a.u.).
For “ACTAATATTTCCATCGTTTTAGGTTATAAGATGTTTTGACCGGAGTCACCTAGTGCAG” the value was 8110 fluorescence intensity (a.u.).
“AATCTCTCTTCTCCCTCTCGGCGCACACCCAGATTCCCGCCGGAGTCACCTAGTGCAG”: the binding signal was 8310 fluorescence intensity (a.u.).
For “TCTCTCCCTAAAAGATCCTCTGCTCGACTGCTCGCTTCCACGGAGTCACCTAGTGCAG” the value was 9760 fluorescence intensity (a.u.); for “ATGTCAACTACTCTCTTATTTTTCATATTATAAGTTATTTCGGAGTCACCTAGTGCAG”, 9280 fluorescence intensity (a.u.).
On to “TATCATGGCTCCCAATTGTTAGGATCTACGAGTTCCATCACGGAGTCACCTAGTGCAG”, for which the binding signal is 8880 fluorescence intensity (a.u.).
For “GATTTCCTCTGATACACCACACATAGTATGCTTTCAAAATCGGAGTCACCTAGTGCAG” the value was 10100 fluorescence intensity (a.u.).
For the sequence “TGGTTCGCCTCTTATATCCTTTTTTTTCTTTAATTAATTTCGGAGTCACCTAGTGCAG”, the binding signal was 8270 fluorescence intensity (a.u.).
The figure for “GCGCTATGATTAATTAATCACCTCGATCCGCCAGCTCGATCGGAGTCACCTAGTGCAG” is 8140 fluorescence intensity (a.u.); for “CATTTCATTGCTATGAAGGGGCCGGGTATTTGGCATGCTACGGAGTCACCTAGTGCAG” it is 8110 fluorescence intensity (a.u.).
For “GCACGTCAGAATTGACCAGTTCCAACTTCCAACTCCGATCCGGAGTCACCTAGTGCAG” the value was 8600 fluorescence intensity (a.u.); for “CGCGTCCTGGCTTGCCCCACCGCACCCGACGCCGCGCAACCGGAGTCACCTAGTGCAG”, 8090 fluorescence intensity (a.u.).
Regarding “TTCTTCTTCTTCTTGCTGCTGCTGCTGCTGCTGCTGAATTCGGAGTCACCTAGTGCAG”, the binding signal is 9780 fluorescence intensity (a.u.).
The figure for “ACCAGCAGTAGCGCCTGCTAGTTTTGTTGCCTTGTGAAGACGGAGTCACCTAGTGCAG” is 8340 fluorescence intensity (a.u.); for “ACACACTATAGGACCTCGCTCTACCCTTTGATTATATCTCCGGAGTCACCTAGTGCAG” it is 12500 fluorescence intensity (a.u.).
Consider “TAGGTGGTGGTGTCGTATCCTTATTTCGGTTTTTTTTTTTCGGAGTCACCTAGTGCAG”, for which the binding signal is 13300 fluorescence intensity (a.u.).
In the case of “GTCTCGCAATTTACACACAATCTGTGTAATTAGTTATTTTCGGAGTCACCTAGTGCAG”, the binding signal was 8290 fluorescence intensity (a.u.).
Take “CGCCGTCGGAGATCGCCACCCCGAACCACCCGCGCCGCCGCGGAGTCACCTAGTGCAG”: the binding signal was 8940 fluorescence intensity (a.u.).
The figure for “GCCTGACCACCGTTCAACTGCGTCTGCAGTTTTATTCCTTCGGAGTCACCTAGTGCAG” is 8610 fluorescence intensity (a.u.); for “AATCTGCGAATGCATCGCGCAGCGCTTCTCATGGGGCAGTCGGAGTCACCTAGTGCAG” it is 8890 fluorescence intensity (a.u.); for “ATTACCTACTACCTCCGTCCCATATTACTTGTCTTTTTGACGGAGTCACCTAGTGCAG” it is 10200 fluorescence intensity (a.u.).
The figure for “GTCCGTAAACCCGAATCATGGCCAGCGTCTATCCAAATCCCGGAGTCACCTAGTGCAG” is 9120 fluorescence intensity (a.u.); for “GGTGGGTTTCGTGGTACGGCTCGCTCTCGTGGTGGGGAATCGGAGTCACCTAGTGCAG” it is 19700 fluorescence intensity (a.u.); for “GTGGTATCTTTTTCAGCGTTGGTTTTTAAGTCGTTAAAAACGGAGTCACCTAGTGCAG” it is 8940 fluorescence intensity (a.u.).
For “CCAGTTTCTTGGCCGCTCTCTGCCACTGCGCTTGCGCCACCGGAGTCACCTAGTGCAG” the value was 8330 fluorescence intensity (a.u.).
With “CGTCACCGCCGGCGCCATGCCCGCCATCGTATCCTCCCCGCGGAGTCACCTAGTGCAG”, the binding signal is 9680 fluorescence intensity (a.u.).
Take “TTTACTACACACCATCGAGGTCGTCTTCTCCATCAACCTCCGGAGTCACCTAGTGCAG”: the binding signal is 9470 fluorescence intensity (a.u.).
The figure for “ATTCCAATCCATTCCTCCGCGACCTCGTCGTCCGATCATGCGGAGTCACCTAGTGCAG” is 8670 fluorescence intensity (a.u.).
For “GTCCCATATCACCGACACCGCCTTATTTAATTTTTTTTATCGGAGTCACCTAGTGCAG” the value was 10500 fluorescence intensity (a.u.).
Turning to “GCTGATGCAGCTGTTGCTTGTTGACTTAGTGACTTAATTTCGGAGTCACCTAGTGCAG”, the binding signal was 8710 fluorescence intensity (a.u.).
For “CTCCTCCTCGCCGCCAAACCCGTCCGCCCGAAGCCACCGCCGGAGTCACCTAGTGCAG” the value was 10900 fluorescence intensity (a.u.); for “TCTCTGGTGGCTCCCTGGCGCTCCTCTTCACTCCATCCTCCGGAGTCACCTAGTGCAG”, 9090 fluorescence intensity (a.u.); for “AGGGAGTTGGTTTTGTTAGCAGAGAAGAAGTTGTAAATTGCGGAGTCACCTAGTGCAG”, 8180 fluorescence intensity (a.u.).
For “AGCGACGTATCTCCCACCAATTCTTTTTTCTTAAGTAGTACGGAGTCACCTAGTGCAG” the value was 8560 fluorescence intensity (a.u.); for “CCCAACGACCAAATGCATGACCCGTTCTAATTCAGTTTCTCGGAGTCACCTAGTGCAG”, 8550 fluorescence intensity (a.u.); for “ATTTTTTTTCTACCACATTCTGTCAGTGAGCTGGTTTACACGGAGTCACCTAGTGCAG”, 11100 fluorescence intensity (a.u.).
The figure for “AGGGTTTAGAGAGGTGTTGATTACTAGGGTTTAGAGAGGGCGGAGTCACCTAGTGCAG” is 8630 fluorescence intensity (a.u.).

Values taken from paper PMC7819943, “Rice protein-binding microarrays: a tool to detect cis-acting elements near promoter regions in rice”.
